These are yes or no findings as the source states them, for the method shown. Binding seen in cells or lysates may run through a third protein. Some entries that bind do so weakly or less than the wild type.
Target: T1, Yeast mitochondrial escape 1-like 1 (YME1L) (human (endogenous in HK2)) (UniProt Q96TA2)
T1 sequence: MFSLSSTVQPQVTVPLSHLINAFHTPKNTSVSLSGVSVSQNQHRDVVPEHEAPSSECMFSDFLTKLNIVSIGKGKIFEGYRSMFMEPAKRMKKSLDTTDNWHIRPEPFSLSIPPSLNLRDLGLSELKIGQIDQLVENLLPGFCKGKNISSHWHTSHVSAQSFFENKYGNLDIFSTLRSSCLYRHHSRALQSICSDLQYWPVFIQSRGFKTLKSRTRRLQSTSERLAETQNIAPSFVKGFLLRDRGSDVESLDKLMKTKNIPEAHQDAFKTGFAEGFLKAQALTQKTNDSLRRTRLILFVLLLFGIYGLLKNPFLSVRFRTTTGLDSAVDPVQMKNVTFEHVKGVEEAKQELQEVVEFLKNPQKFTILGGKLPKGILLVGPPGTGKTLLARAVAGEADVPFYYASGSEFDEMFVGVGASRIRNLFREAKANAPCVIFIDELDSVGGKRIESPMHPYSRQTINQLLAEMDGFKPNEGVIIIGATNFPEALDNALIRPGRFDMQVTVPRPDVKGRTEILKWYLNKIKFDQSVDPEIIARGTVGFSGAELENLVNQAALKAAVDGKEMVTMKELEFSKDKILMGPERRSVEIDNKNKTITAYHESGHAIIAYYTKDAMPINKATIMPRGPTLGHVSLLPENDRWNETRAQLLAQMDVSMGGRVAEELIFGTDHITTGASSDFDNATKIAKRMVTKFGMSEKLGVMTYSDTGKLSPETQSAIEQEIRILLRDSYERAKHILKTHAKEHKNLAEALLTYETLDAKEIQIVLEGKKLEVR
Assay: co-IP; endogenous proteins in HK2 cell lysates; antibody at 4 °C overnight, Protein A/G magnetic beads 2 h, western blotting; reciprocal; also after HG for 48 h (IP with anti-YME1L)

Amino acid sequences for entries named in this document (tags omitted).
UniProt Q9BXK5: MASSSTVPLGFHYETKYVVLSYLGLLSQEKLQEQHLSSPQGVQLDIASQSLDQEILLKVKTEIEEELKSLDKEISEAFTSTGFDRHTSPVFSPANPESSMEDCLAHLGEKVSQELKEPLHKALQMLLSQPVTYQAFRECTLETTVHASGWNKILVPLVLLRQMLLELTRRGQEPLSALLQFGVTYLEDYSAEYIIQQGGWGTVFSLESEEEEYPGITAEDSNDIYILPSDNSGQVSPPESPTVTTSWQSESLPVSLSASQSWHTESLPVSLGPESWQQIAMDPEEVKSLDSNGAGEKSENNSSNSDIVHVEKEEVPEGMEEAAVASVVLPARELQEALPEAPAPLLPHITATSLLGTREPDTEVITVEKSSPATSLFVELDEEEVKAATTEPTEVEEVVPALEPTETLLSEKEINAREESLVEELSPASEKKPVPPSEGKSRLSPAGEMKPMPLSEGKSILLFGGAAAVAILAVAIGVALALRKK

BCL2-like 13 (BCL2L13) (from UniProt Q9BXK5 1-485)
binding: binds

— article PMC10946153
